Among the data in paper PMC12644026 are binding values, retold here.

Chains of the proteins cited; added tags and fusions are not shown. Lines headed by an entry give the natural chain unless they say otherwise; changes in a name come on top.
UniProt P61586: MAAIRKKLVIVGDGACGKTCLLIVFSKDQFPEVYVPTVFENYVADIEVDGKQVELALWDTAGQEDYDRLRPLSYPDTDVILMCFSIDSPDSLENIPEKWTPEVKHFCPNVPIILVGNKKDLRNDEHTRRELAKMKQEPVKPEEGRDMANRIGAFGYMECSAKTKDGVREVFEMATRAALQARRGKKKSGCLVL
UniProt P60953: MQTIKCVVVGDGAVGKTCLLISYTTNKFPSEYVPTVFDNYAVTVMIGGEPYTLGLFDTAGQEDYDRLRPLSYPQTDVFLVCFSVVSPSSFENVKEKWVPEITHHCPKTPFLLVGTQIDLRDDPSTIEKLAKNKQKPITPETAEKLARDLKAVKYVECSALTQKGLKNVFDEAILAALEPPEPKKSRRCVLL
UniProt Q12774: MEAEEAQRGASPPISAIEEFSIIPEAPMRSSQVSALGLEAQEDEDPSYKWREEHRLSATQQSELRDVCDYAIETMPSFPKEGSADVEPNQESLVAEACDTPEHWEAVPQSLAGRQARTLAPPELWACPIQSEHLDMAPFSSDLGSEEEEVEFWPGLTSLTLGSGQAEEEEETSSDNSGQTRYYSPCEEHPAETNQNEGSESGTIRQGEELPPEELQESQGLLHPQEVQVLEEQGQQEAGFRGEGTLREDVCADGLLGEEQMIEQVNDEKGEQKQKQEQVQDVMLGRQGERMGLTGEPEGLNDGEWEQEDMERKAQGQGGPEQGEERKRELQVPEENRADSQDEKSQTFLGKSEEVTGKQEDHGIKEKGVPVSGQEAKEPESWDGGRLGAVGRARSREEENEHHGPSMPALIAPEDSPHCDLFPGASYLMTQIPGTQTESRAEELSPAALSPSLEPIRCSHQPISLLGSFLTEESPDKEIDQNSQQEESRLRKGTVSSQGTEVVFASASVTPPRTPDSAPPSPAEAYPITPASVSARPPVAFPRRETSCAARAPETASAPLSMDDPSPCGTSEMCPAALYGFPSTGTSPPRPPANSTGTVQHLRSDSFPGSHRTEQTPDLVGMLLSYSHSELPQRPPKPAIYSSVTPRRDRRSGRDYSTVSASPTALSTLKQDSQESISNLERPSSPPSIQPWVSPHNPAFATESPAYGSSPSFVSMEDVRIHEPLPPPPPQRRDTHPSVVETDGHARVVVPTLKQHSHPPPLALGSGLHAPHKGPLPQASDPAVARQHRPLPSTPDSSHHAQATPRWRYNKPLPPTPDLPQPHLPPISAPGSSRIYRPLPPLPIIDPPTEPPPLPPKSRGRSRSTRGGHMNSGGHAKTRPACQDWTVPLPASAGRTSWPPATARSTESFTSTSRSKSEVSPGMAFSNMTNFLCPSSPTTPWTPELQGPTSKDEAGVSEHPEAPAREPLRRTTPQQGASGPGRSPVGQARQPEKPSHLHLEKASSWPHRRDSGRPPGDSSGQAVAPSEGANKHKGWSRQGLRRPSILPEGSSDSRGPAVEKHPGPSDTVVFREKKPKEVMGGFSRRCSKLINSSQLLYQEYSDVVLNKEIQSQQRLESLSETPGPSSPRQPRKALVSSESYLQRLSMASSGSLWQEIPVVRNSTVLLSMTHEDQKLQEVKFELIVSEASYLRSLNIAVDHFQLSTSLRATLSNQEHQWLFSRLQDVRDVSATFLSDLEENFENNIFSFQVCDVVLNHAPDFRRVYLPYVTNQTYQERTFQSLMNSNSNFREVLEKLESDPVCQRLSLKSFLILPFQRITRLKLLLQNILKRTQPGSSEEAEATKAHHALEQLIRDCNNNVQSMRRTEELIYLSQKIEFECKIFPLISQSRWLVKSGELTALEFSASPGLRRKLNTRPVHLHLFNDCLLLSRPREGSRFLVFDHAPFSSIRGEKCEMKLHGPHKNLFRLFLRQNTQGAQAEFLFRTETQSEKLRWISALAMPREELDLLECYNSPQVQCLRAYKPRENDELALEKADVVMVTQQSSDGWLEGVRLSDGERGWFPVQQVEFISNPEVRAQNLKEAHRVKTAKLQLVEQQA
UniProt Q14155: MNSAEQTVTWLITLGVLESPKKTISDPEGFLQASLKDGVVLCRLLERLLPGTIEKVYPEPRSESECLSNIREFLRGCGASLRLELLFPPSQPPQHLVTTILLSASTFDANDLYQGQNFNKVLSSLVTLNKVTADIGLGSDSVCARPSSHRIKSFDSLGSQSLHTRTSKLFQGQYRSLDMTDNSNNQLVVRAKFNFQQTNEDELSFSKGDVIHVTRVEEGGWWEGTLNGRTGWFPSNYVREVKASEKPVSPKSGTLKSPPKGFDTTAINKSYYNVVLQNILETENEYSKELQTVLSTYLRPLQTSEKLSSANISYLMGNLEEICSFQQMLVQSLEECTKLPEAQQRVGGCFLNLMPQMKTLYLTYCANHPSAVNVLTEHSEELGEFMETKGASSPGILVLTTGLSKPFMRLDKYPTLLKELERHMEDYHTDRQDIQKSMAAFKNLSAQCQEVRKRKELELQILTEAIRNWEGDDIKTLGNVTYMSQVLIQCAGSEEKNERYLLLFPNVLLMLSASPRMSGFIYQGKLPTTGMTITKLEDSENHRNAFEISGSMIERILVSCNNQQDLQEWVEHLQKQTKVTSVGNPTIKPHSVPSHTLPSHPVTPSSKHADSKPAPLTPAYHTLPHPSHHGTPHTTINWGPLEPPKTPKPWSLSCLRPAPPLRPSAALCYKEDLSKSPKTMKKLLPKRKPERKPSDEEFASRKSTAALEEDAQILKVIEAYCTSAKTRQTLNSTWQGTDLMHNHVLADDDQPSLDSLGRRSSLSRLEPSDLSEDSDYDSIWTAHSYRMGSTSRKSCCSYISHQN
UniProt Q9NSV4: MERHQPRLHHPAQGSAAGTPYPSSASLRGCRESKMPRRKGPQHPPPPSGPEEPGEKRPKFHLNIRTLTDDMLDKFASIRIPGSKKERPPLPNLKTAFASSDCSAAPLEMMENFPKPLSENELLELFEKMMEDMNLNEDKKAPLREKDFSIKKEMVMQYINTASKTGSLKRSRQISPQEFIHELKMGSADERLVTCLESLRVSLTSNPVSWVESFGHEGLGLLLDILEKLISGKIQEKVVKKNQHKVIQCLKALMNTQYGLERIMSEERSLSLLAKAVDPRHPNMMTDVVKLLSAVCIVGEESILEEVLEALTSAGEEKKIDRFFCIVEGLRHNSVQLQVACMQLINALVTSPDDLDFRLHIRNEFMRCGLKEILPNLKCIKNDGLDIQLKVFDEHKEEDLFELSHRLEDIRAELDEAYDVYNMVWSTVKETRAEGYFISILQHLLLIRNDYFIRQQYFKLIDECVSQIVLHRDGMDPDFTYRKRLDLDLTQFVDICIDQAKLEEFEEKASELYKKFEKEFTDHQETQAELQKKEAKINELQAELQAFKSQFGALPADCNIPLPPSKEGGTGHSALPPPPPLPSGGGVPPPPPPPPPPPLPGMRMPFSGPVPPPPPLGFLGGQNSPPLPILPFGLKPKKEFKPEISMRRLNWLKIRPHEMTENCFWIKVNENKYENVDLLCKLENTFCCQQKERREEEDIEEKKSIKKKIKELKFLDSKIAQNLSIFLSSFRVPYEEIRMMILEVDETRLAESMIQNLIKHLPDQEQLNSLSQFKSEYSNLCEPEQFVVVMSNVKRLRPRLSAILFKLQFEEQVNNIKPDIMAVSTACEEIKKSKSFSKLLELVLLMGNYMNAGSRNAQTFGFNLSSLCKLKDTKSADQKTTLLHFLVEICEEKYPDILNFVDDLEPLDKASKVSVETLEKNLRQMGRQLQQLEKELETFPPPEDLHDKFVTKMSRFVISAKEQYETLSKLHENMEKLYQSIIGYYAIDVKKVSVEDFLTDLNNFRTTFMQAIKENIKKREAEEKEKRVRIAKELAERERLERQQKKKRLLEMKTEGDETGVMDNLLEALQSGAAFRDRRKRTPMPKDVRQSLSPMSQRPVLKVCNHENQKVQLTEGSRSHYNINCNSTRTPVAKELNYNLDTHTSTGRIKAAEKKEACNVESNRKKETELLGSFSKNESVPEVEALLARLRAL
UniProt Q5JSL3: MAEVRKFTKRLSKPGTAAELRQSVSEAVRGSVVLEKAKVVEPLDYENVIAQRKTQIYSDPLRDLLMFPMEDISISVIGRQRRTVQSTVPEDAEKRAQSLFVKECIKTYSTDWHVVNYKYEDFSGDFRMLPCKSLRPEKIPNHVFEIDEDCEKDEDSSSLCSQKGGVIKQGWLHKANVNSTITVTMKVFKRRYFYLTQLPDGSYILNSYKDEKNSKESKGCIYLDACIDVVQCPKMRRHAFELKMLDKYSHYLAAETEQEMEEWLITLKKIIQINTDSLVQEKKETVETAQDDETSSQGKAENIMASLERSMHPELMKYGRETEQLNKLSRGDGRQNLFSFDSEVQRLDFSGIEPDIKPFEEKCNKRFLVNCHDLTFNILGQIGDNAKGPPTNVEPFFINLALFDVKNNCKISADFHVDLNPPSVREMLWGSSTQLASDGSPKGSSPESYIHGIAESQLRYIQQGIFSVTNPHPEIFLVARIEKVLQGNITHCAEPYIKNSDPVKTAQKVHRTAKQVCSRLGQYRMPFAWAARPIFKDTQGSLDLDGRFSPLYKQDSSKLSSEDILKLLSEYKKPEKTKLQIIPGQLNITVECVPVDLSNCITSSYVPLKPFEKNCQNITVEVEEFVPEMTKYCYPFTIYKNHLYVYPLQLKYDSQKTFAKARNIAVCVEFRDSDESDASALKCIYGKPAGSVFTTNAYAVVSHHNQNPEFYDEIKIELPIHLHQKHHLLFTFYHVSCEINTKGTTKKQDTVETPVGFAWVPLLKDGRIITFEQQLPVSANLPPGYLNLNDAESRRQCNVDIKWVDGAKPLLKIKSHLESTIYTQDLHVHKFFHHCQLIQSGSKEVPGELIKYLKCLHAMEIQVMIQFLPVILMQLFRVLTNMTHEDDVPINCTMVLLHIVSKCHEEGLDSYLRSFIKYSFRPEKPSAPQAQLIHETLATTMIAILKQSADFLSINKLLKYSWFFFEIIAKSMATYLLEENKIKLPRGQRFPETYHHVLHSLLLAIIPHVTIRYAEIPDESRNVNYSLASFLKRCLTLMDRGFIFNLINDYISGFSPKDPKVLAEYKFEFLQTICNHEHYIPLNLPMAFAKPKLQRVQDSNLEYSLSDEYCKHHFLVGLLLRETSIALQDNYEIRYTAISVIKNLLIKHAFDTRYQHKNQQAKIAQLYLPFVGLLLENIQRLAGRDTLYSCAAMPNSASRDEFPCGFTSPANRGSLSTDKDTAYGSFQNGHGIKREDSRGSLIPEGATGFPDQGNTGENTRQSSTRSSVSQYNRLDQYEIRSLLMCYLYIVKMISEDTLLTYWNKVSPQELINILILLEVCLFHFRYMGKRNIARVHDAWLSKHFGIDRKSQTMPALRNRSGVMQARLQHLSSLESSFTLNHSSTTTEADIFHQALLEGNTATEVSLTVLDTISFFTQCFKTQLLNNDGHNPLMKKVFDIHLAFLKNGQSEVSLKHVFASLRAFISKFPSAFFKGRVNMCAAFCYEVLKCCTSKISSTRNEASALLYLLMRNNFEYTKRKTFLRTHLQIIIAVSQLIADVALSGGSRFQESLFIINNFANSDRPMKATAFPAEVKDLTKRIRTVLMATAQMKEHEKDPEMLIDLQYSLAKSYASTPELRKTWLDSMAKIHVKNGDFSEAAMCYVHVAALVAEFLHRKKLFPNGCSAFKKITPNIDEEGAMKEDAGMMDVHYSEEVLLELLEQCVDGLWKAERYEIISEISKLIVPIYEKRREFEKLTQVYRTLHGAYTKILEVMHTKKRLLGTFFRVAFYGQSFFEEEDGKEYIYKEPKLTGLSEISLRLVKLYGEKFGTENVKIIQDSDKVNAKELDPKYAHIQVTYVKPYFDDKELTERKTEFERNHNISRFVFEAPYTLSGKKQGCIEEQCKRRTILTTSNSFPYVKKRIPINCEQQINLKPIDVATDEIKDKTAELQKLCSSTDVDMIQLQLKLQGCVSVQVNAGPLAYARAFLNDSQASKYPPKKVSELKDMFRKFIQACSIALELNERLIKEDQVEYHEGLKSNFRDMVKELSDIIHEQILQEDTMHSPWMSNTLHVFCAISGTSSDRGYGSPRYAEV
UniProt O43516: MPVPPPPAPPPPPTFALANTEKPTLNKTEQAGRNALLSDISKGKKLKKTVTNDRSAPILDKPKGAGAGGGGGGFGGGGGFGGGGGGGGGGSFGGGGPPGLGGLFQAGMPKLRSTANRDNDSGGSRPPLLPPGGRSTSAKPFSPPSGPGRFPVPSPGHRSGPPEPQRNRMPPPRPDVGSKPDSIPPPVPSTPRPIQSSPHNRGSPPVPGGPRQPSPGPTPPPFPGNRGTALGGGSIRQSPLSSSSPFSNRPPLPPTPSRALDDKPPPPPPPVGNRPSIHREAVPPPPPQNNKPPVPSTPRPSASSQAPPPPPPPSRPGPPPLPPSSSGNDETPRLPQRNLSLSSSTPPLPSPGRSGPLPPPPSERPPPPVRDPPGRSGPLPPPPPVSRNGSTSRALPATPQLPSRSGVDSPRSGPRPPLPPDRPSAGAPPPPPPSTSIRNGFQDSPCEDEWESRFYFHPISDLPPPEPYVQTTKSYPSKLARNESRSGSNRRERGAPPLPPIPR

What all share (experiment): proximity labelling; BioID in immortalized human podocytes expressing doxycycline-inducible BirA-Rho GTPase baits; 16 h with 1 ug/mL doxycycline (0.1 ug/mL for constitutively active mutants) and 50 uM biotin; RIPA lysis; biotinylated proteins pulled down on streptavidin beads; mass spectrometry; SAINT AvgP >= 0.95; controls empty MYC-BirA vector and BirA*-Flag-GFP
Assay [1] deals with BirA-RhoA G17A (nucleotide-free RhoA) (UniProt P61586).
In assay [2] the target is BirA-Cdc42 G15A (nucleotide-free Cdc42) (UniProt P60953).
In assay [3] the target is BirA-RhoA G14V (constitutively active RhoA) (UniProt P61586).
Assay [4] deals with BirA-Cdc42 G12V (constitutively active Cdc42) (UniProt P60953).
Assay [5] addresses BirA-RhoA G14V (constitutively active RhoA) (UniProt P61586). This is another data set of the same source.
Assay [6] addresses BirA-Cdc42 G15A (nucleotide-free Cdc42) (UniProt P60953). This is another data set of the same source.
Assay [7] deals with BirA-RhoA G17A (nucleotide-free RhoA) (UniProt P61586). This is another data set of the same source.

Where two headings read alike, the source gives them in different places. No constants are given. Whether binding was seen depends on the method and setting. In cells and extracts the contact can be indirect. Here binding means that the protein was enriched with, or labelled near, the bait; the list need not be complete.

As for ARHGEF5 (from UniProt Q12774 1-1597), the binding result in assay [1] is given as “binds”. On to ARHGEF7 (from UniProt Q14155 1-803), for which the binding entry in assay [2] was “binds”. In the case of DIAPH3 (from UniProt Q9NSV4 1-1193), in assay [3], the binding entry was “binds”.

For DNMBP (from UniProt Q6XZF7 1-1577), the binding result in assay [2] is on record as “binds”. Same read-out and setting: for DOCK9 (from UniProt Q9BZ29 1-2069) the value was “binds”; for DOCK11 (from UniProt Q5JSL3 1-2073), “binds”. On to “IRSp53 (endogenous, podocytes) (from UniProt Q9UQB8 1-552)”, for which, in assay [4], the binding entry was “binds”. As to “KIAA1522 (endogenous, podocytes) (from UniProt Q9P206 1-1035)”, the binding entry in assay [4] is reported as “binds”. In the case of ROCK2 (from UniProt O75116 1-1388), in assay [3], the binding result was “binds”. As for WASL (from UniProt O00401 1-505), in assay [4], the binding entry is given as “binds”.

As for WIPF1 (from UniProt O43516 1-503), the binding result in assay [4] is recorded as “binds”.

B1: DIAPH2 (protein, UniProt O60879 1-1101)
chain: MEQPGAAASGAGGGSEEPGGGRSNKRSAGNRAANEEETKNKPKLNIQIKTLADDVRDRITSFRKSTVKKEKPLIQHPIDSQVAMSEFPAAQPLYDERSLNLSEKEVLDLFEKMMEDMNLNEEKKAPLRNKDFTTKREMVVQYISATAKSGGLKNSKHECTLSSQEYVHELRSGISDEKLLNCLESLRVSLTSNPVSWVNNFGHEGLGLLLDELEKLLDKKQQENIDKKNQYKLIQCLKAFMNNKFGLQRILGDERSLLLLARAIDPKQPNMMTEIVKILSAICIVGEENILDKLLGAITTAAERNNRERFSPIVEGLENQEALQLQVACMQFINALVTSPYELDFRIHLRNEFLRSGLKTMLPDLKEKENDELDIQLKVFDENKEDDLTELSHRLNDIRAEMDDMNEVYHLLYNMLKDTAAENYFLSILQHFLLIRNDYYIRPQYYKIIEECVSQIVLHCSGMDPDFKYRQRLDIDLTHLIDSCVNKAKVEESEQKAAEFSKKFDEEFTARQEAQAELQKRDEKIKELEAEIQQLRTQAQVLSSSSGIPGPPAAPPLPGVGPPPPPPAPPLPGGAPLPPPPPPLPGMMGIPPPPPPPLLFGGPPPPPPLGGVPPPPGISLNLPYGMKQKKMYKPEVSMKRINWSKIEPTELSENCFWLRVKEDKFENPDLFAKLALNFATQIKVQKNAEALEEKKTGPTKKKVKELRILDPKTAQNLSIFLGSYRMPYEDIRNVILEVNEDMLSEALIQNLVKHLPEQKILNELAELKNEYDDLCEPEQFGVVMSSVKMLQPRLSSILFKLTFEEHINNIKPSIIAVTLACEELKKSESFNRLLELVLLVGNYMNSGSRNAQSLGFKINFLCKIRDTKSADQKTTLLHFIADICEEKYRDILKFPEELEHVESASKVSAQILKSNLASMEQQIVHLERDIKKFPQAENQHDKFVEKMTSFTKTAREQYEKLSTMHNNMMKLYENLGEYFIFDSKTVSIEEFFGDLNNFRTLFLEAVRENNKRREMEEKTRRAKLAKEKAEQEKLERQKKKKQLIDINKEGDETGVMDNLLEALQSGAAFRDRRKRIPRNPDNRRVPLERSRSRHNGAISSK
As to B1, the binding entry in assay [5] is “binds”.

B2: ARHGEF26 (protein, UniProt Q96DR7 1-871)
chain: MDGESEVDFSSNSITPLWRRRSIPQPHQVLGRSKPRPQSYQSPNGLLITDFPVEDGGTLLAAQIPAQVPTASDSRTVHRSPLLLGAQRRAVANGGTASPEYRAASPRLRRPKSPKLPKAVPGGSPKSPANGAVTLPAPPPPPVLRPPRTPNAPAPCTPEEDLTGLTASPVPSPTANGLAANNDSPGSGSQSGRKAKDPERGLFPGPQKSSSEQKLPLQRLPSQENELLENPSVVLSTNSPAALKVGKQQIIPKSLASEIKISKSNNQNVEPHKRLLKVRSMVEGLGGPLGHAGEESEVDNDVDSPGSLRRGLRSTSYRRAVVSGFDFDSPTSSKKKNRMSQPVLKVVMEDKEKFSSLGRIKKKMLKGQGTFDGEENAVLYQNYKEKALDIDSDEESEPKEQKSDEKIVIHHKPLRSTWSQLSAVKRKGLSQTVSQEERKRQEAIFEVISSEHSYLLSLEILIRMFKNSKELSDTMTKTERHHLFSNITDVCEASKKFFIELEARHQNNIFIDDISDIVEKHTASTFDPYVKYCTNEVYQQRTLQKLLATNPSFKEVLSRIESHEDCRNLPMISFLILPMQRVTRLPLLMDTICQKTPKDSPKYEVCKRALKEVSKLVRLCNEGARKMERTEMMYTINSQLEFKIKPFPLVSSSRWLVKRGELTAYVEDTVLFSRRTSKQQVYFFLFNDVLIITKKKSEESYNVNDYSLRDQLLVESCDNEELNSSPGKNSSTMLYSRQSSASHLFTLTVLSNHANEKVEMLLGAETQSERARWITALGHSSGKPPADRTSLTQVEIVRSFTAKQPDELSLQVADVVLIYQRVSDGWYEGERLRDGERGWFPMECAKEITCQATIDKNVERMGRLLGLETNV
B2: the binding entry in assay [6] and in assay [7] was “binds” each time.

B3: ARHGEF18 (protein, UniProt Q6ZSZ5 1-1361)
chain: MGDDQEDDFPRRLSESMEDLSLDLGALQGSEYLQDLGLGAPSHSQPGETPDSRPTGEEPGRDSLFSSLAGSQDLSRRRSWERSRSCSESWRRLSLDASAVDEEPCLPRTLASLALNLPGGGLKTWTQGCLSGGGTPAESPGKECDSPKKRGRSRSVPVSFYEIRSPEISPGLEVPTPPVQGLEPPVLECMEKDHVEPDHVLIVQQVLQELRQYHGARQRACMSASPGGAHSNLTWFEFLSESEDGAGKNEKSDKSTSVKRRLSCLRSRVTRQKEKGKSPAHLKDKGQDARERRECVNGHQLLQGTFSGPSSCPLCGKPFLSSASLKEHPRGTLLSDGSPALSRNVGMTVSQKGGPQPTPSPAGPGTQLGPITGEMDEADSAFLKFKQTADDSLSLTSPNTESIFVEDPYTASLRSEIESDGHEFEAESWSLAVDAAYAKKQKREVVKRQDVLYELMQTEVHHVRTLKIMLKVYSRALQEELQFSSKAIGRLFPCADDLLETHSHFLARLKERRQESLEEGSDRNYVIQKIGDLLVQQFSGENGERMKEKYGVFCSGHNEAVSHYKLLLQQNKKFQNLIKKIGNFSIVRRLGVQECILLVTQRITKYPVLVERIIQNTEAGTEDYEDLTQALNLIKDIISQVDAKVSECEKGQRLREIAGKMDLKSSSKLKNGLTFRKEDMLQRQLHLEGMLCWKTTSGRLKDILAILLTDVLLLLQEKDQKYVFASVDSKPPVISLQKLIVREVANEEKAMFLISASLQGPEMYEIYTSSKEDRNAWMAHIQRAVESCPDEEEGPFSLPEEERKVVEARATRLRDFQERLSMKDQLIAQSLLEKQQIYLEMAEMGGLEDLPQPRGLFRGGDPSETLQGELILKSAMSEIEGIQSLICRQLGSANGQAEDGGSSTGPPRRAETFAGYDCTNSPTKNGSFKKKVSSTDPRPRDWRGPPNSPDLKLSDSDIPGSSEESPQVVEAPGTESDPRLPTVLESELVQRIQTLSQLLLNLQAVIAHQDSYVETQRAAIQEREKQFRLQSTRGNLLLEQERQRNFEKQREERAALEKLQSQLRHEQQRWERERQWQHQELERAGARLQEREGEARQLRERLEQERAELERQRQAYQHDLERLREAQRAVERERERLELLRRLKKQNTAPGALPPDTLAEAQPPSHPPSFNGEGLEGPRVSMLPSGVGPEYAERPEVARRDSAPTENRLAKSDVPIQLLSATNQFQRQAAVQQQIPTKLAASTKGGKDKGGKSRGSQRWESSASFDLKQQLLLNKLMGKDESTSRNRRSLSPILPGRHSPAPPPDPGFPAPSPPPADSPSEGFSLKAGGTALLPGPPAPSPLPATPLSAKEDASKEDVIFF
Turning to B3, the binding result in assay [7] is on record as “binds”.

B4: VAV2 (protein, UniProt P52735 1-878)
chain: MEQWRQCGRWLIDCKVLPPNHRVVWPSAVVFDLAQALRDGVLLCQLLHNLSPGSIDLKDINFRPQMSQFLCLKNIRTFLKVCHDKFGLRNSELFDPFDLFDVRDFGKVISAVSRLSLHSIAQNKGIRPFPSEETTENDDDVYRSLEELADEHDLGEDIYDCVPCEDGGDDIYEDIIKVEVQQPMIRYMQKMGMTEDDKRNCCLLEIQETEAKYYRTLEDIEKNYMSPLRLVLSPADMAAVFINLEDLIKVHHSFLRAIDVSVMVGGSTLAKVFLDFKERLLIYGEYCSHMEHAQNTLNQLLASREDFRQKVEECTLKVQDGKFKLQDLLVVPMQRVLKYHLLLKELLSHSAERPERQQLKEALEAMQDLAMYINEVKRDKETLRKISEFQSSIENLQVKLEEFGRPKIDGELKVRSIVNHTKQDRYLFLFDKVVIVCKRKGYSYELKEIIELLFHKMTDDPMNNKDVKKSHGKMWSYGFYLIHLQGKQGFQFFCKTEDMKRKWMEQFEMAMSNIKPDKANANHHSFQMYTFDKTTNCKACKMFLRGTFYQGYMCTKCGVGAHKECLEVIPPCKFTSPADLDASGAGPGPKMVAMQNYHGNPAPPGKPVLTFQTGDVLELLRGDPESPWWEGRLVQTRKSGYFPSSSVKPCPVDGRPPISRPPSREIDYTAYPWFAGNMERQQTDNLLKSHASGTYLIRERPAEAERFAISIKFNDEVKHIKVVEKDNWIHITEAKKFDSLLELVEYYQCHSLKESFKQLDTTLKYPYKSRERSASRASSRSPASCASYNFSFLSPQGLSFASQGPSAPFWSVFTPRVIGTAVARYNFAARDMRELSLREGDVVRIYSRIGGDQGWWKGETNGRIGWFPSTYVEEEGIQ
As to B4, the binding entry in assay [7] is recorded as “binds”.
